Data on 1 substance can be found in PMC3316541.

By UniProt entry, the sequences of proteins in these tests, tags left out.
UniProt Q6P5F9: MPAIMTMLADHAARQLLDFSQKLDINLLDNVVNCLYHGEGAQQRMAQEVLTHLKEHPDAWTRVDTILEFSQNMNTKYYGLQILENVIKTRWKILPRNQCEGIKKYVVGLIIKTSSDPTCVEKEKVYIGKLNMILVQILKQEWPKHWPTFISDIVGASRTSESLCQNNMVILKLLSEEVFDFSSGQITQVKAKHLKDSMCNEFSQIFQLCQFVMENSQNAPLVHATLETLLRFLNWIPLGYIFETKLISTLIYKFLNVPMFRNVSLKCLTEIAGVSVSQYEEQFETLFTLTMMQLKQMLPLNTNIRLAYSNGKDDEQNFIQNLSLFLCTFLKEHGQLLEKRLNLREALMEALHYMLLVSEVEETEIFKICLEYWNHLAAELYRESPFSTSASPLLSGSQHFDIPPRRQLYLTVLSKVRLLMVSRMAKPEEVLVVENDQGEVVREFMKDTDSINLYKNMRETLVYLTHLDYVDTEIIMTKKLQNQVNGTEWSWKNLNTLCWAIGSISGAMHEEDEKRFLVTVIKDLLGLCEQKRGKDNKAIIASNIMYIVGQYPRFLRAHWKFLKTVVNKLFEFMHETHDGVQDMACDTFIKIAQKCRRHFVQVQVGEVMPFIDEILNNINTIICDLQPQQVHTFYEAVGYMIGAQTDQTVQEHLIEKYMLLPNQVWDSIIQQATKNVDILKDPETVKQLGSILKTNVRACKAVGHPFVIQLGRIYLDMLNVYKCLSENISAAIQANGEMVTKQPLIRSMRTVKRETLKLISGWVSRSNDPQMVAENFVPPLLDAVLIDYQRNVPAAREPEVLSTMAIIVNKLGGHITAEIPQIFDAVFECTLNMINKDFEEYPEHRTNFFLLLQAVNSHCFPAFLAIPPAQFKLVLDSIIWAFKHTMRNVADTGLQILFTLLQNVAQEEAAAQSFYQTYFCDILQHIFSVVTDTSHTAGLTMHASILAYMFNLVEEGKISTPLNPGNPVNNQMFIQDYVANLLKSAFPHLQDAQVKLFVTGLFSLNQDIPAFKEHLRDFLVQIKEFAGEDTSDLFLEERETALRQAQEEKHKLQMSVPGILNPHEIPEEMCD

These are yes or no findings as the source states them, for the method shown. Binding seen in cells or lysates may run through a third protein. Some entries that bind do so weakly or less than the wild type.

This test addresses T1, Gonadotropin Regulated Testicular RNA Helicase (GRTH/DDX25) (mouse (endogenous in testis)) (UniProt Q9QY15).
T1 sequence: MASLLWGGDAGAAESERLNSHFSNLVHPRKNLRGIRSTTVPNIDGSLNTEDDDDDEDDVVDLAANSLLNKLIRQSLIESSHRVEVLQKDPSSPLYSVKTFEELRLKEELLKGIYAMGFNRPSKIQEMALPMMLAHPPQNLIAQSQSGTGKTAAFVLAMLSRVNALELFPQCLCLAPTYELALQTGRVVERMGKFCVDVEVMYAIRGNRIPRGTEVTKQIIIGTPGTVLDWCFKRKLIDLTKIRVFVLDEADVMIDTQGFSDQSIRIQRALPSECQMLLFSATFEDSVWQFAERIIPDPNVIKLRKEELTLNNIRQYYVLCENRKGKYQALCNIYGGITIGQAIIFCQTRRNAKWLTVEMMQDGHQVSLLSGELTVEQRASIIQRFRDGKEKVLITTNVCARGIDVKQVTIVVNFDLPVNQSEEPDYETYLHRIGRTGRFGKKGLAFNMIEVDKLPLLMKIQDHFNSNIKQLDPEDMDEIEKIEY
Briefly: co-IP; polysomes from WT mouse testis extracts, pre-cleared with protein A agarose and normal IgG; polyclonal GRTH peptide (aa 465-477) antibody 2 h at 4°C, protein A-agarose overnight at 4°C, three washes; rabbit IgG as control.

On to CRM1 (from UniProt Q6P5F9 1-1071), for which the binding entry was “binds”.
